# Some of the results follow.
# Target: T1, OsSMF1 (Oryza sativa, UniProt Q6ZLB0 1-436)
# T1 sequence: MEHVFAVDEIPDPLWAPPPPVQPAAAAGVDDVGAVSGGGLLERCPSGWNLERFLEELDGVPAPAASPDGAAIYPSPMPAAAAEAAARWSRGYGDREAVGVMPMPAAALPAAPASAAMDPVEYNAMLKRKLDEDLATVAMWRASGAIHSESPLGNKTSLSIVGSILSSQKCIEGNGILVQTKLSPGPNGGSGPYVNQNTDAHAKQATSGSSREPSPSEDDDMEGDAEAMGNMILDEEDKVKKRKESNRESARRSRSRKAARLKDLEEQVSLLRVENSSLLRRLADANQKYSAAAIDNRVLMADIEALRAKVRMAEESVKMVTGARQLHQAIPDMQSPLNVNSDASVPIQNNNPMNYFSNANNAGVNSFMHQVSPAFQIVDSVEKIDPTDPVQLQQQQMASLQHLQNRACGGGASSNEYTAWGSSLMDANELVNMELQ
# Experiment: protein-binding microarray (RPBM); PBS, 2% BSA, 51.3 ng/ul salmon testes DNA, 50 uM zinc acetate, 200 nM TF, 25 C, 1 h; high values mean tight binding
# Conditions: protein: recombinant; tags: N-terminal polyhistidine and DsRed monomer fusion (pET32a); chain copies: 2; label: CyDye5-dUTP incorporated in the synthesized complementary strand; 3' TTTTT single-stranded linker to array surface; dsDNA, one strand shown
# Method in brief: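 Using Ni–NTA, transcription factors fused N-terminally to polyhistidine and DsRed were purified after expression in E. coli BL21-CodonPlus. These were incubated at 200 nM with a blocked, double-stranded custom Agilent array for 1 h at 25 °C in a buffer containing 50 µM zinc acetate, and the array was washed. The binding signal is per-feature fluorescence intensity (arbitrary units) on an Axon 4000B scanner.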
row,Sequence,binding signal
1,TTCCCTCCGGCGTCAACATCGTCACAACGTCATTCTTATTCGGAGTCACCTAGTGCAG,4710 ± 501 fluorescence intensity (a.u.)
2,ACGGCCACGCCTCGCGTCGTCATAGTCGTCTTCCTCGATCCGGAGTCACCTAGTGCAG,4360 fluorescence intensity (a.u.)
3,TGGGCTCAATCCAACTCACATGCAGCGAGTGCTCGACTTGCGGAGTCACCTAGTGCAG,3630 fluorescence intensity (a.u.)
4,CCCTTCTCCTATCGTACGTGGCTGGGTGGCACACGGCGCCCGGAGTCACCTAGTGCAG,7270 fluorescence intensity (a.u.)
5,CCAAGGTGCGTGCGTGCCTTCTGCGTGCGTTGCTGTTGCTCGGAGTCACCTAGTGCAG,5180 fluorescence intensity (a.u.)
6,AATCTATCGTGTAGGTGTACGTGTTGATATCAAAGATGAACGGAGTCACCTAGTGCAG,3530 fluorescence intensity (a.u.)
7,GTTTTGACCGGTCTTCATACACGTGGCAGTACAGCGTGGCCGGAGTCACCTAGTGCAG,28600 fluorescence intensity (a.u.)
8,CAGCCACTTACACAGTAGTTACACCTCATTTACACACACTCGGAGTCACCTAGTGCAG,4000 fluorescence intensity (a.u.)
9,CACAGGATTGAGAGAATGGCTTCCAGCTCACTCGGGGTTTCGGAGTCACCTAGTGCAG,3160 fluorescence intensity (a.u.)
10,CAAATGTTCTTTTGACGTATATGACCACATATTTGCAGTACGGAGTCACCTAGTGCAG,3520 fluorescence intensity (a.u.)
11,TACTGTAGCACCACATTGTCAATCATGGCGCAATTATGCTCGGAGTCACCTAGTGCAG,12900 fluorescence intensity (a.u.)
12,CTCTTCATTTGTTAATTTAATTTGATTAATTCAGTGCTTCCGGAGTCACCTAGTGCAG,64900 fluorescence intensity (a.u.)
13,ATTCTATAGGCCGATCGACGTGGCAGACCCGAGCCCAATACGGAGTCACCTAGTGCAG,7750 fluorescence intensity (a.u.)
14,ATCCTCCACGGTTGAGTGACTTGAATCCGCGGCGGTTTGACGGAGTCACCTAGTGCAG,3300 fluorescence intensity (a.u.)
15,CCAAACGGTGAAACACCACGTATGCTTCTTTTATTGATCTCGGAGTCACCTAGTGCAG,6280 fluorescence intensity (a.u.)
16,ATATACAGTACACGTTCTTGCCCTCATTGCCACATAGTACCGGAGTCACCTAGTGCAG,4020 fluorescence intensity (a.u.)
17,CGAGGCGGGACACGGCCACGTCGTACACGCGGTGCCGGGCCGGAGTCACCTAGTGCAG,3810 fluorescence intensity (a.u.)
18,CTTCATACGAACCTGCAGTGGTGACGGCGCACAGGAAGGGCGGAGTCACCTAGTGCAG,3740 fluorescence intensity (a.u.)
19,GTCCTACGGGGCTGCTGAATCAGCGTGGAACCCACGCGGACGGAGTCACCTAGTGCAG,5600 fluorescence intensity (a.u.)
20,GCCTCAATGGCGTACTCGACCTGGAACAACCGCCCCTCCGCGGAGTCACCTAGTGCAG,3660 fluorescence intensity (a.u.)
21,ATAAGTGCAGCCGTGGATATCCGTGCCCAACGTTTGACCGCGGAGTCACCTAGTGCAG,3440 fluorescence intensity (a.u.)
22,TTTAGTTGCCCAGAAATGCATTGTCATCAAGTTGTTGTACCGGAGTCACCTAGTGCAG,36000 fluorescence intensity (a.u.)
23,GGGGATTGAGATCCTATGACGTTACTGTTCACCGTAACTGCGGAGTCACCTAGTGCAG,4770 fluorescence intensity (a.u.)
24,ACAGAGACAAAACGATTACGTAAAGCTTGATTTCCGCCTTCGGAGTCACCTAGTGCAG,4060 fluorescence intensity (a.u.)
25,CATGGTAGAAAATTAGATTATGGTGCATTTGCTGCAAATGCGGAGTCACCTAGTGCAG,3860 fluorescence intensity (a.u.)
26,ACCTTTCCAATACTTTTCAATATCCGTTTCTGCCACGCCACGGAGTCACCTAGTGCAG,4690 fluorescence intensity (a.u.)
27,AGTACTCTGTCCTTGTCATGCACGATTCACTTACTTCCCACGGAGTCACCTAGTGCAG,5950 fluorescence intensity (a.u.)

row,Sequence,binding signal
1,GTATATTTTAACATTGATTACCTCGTACACCTCATCTGTCCGGAGTCACCTAGTGCAG,4710 fluorescence intensity (a.u.)
2,CGGTTTTGACGGACGTGGTGCCCACGTGGCTAGTTTGACTCGGAGTCACCTAGTGCAG,19800 fluorescence intensity (a.u.)
3,GGCTACCCCATCGCCACCACCACCACCACCGCATCTCTCTCGGAGTCACCTAGTGCAG,3330 fluorescence intensity (a.u.)
4,AATAGCCTATCCACGGTCACGATGGTTTAGAATTCTCTTTCGGAGTCACCTAGTGCAG,3980 fluorescence intensity (a.u.)
5,CACCCCACCCCGGCGCGCGCGGCGATGCGTCACGCTTTGCCGGAGTCACCTAGTGCAG,6680 fluorescence intensity (a.u.)
6,ATCTATCTTCATCAGCAGCAGAGGCAGAGGTGAGCTGAGCCGGAGTCACCTAGTGCAG,3160 fluorescence intensity (a.u.)
7,AACAAATATCGTTCCTCGGTGTCGTCATCGTGTTTGGATCCGGAGTCACCTAGTGCAG,6670 fluorescence intensity (a.u.)
8,AATCACCACCTCGCCTCGCGTCACCACCTCTCGCCGCCGCCGGAGTCACCTAGTGCAG,5330 fluorescence intensity (a.u.)
9,GTTATCATTCTTGACTTCTCCCCAGATTGGAAATCACATGCGGAGTCACCTAGTGCAG,4230 fluorescence intensity (a.u.)
10,ACACACCTTGCAGGGACACATGCAGAGTCATCAGGATGAACGGAGTCACCTAGTGCAG,3630 fluorescence intensity (a.u.)
11,AGATACTTGAAGGAGTCACGGATATTGATTTGGTCATCAACGGAGTCACCTAGTGCAG,3220 fluorescence intensity (a.u.)
12,TGCATGGCATTAAATATGAGCAATTCAGGAATTCTGTCAGCGGAGTCACCTAGTGCAG,16000 fluorescence intensity (a.u.)
13,ATCAGCTAATCTCAAGACTTCGAAGCCGATGACTACTCCGCGGAGTCACCTAGTGCAG,3750 fluorescence intensity (a.u.)
14,GGTATCTTGTGATGTCAGACTGATCGGTTTCCCTTGAGACCGGAGTCACCTAGTGCAG,30000 fluorescence intensity (a.u.)
15,CCTTGGACACCATTAGTTTGTACGTGTTTATACGATATCGCGGAGTCACCTAGTGCAG,3320 fluorescence intensity (a.u.)
16,CTGGTTCTCGTATCATCCTTCGCAAAACATCAGCTGAGTGCGGAGTCACCTAGTGCAG,3850 fluorescence intensity (a.u.)
17,GCCGGTGGTCTTCCTCGTGCCGAGCCGACGCCACCGCCGGCGGAGTCACCTAGTGCAG,3230 fluorescence intensity (a.u.)
18,CTCAAGGAGGGAGGAATGTCACGCCAGAGCATTCGTCATCCGGAGTCACCTAGTGCAG,3330 fluorescence intensity (a.u.)
19,TAGACACACACACGCCAATCACCCATCTAATATTCACATCCGGAGTCACCTAGTGCAG,6190 fluorescence intensity (a.u.)
20,ACTAACATATTGGTGCCACCAACACATAGGCATCACTGTGCGGAGTCACCTAGTGCAG,3530 fluorescence intensity (a.u.)
21,ACCAGATTCACCGTGATTAGTCTCACACTTAATAAATCGACGGAGTCACCTAGTGCAG,3370 fluorescence intensity (a.u.)
22,CATGTCGTCGTCGTGGTGGTGGTGGTGGTGGTGGGGCGGGCGGAGTCACCTAGTGCAG,11700 fluorescence intensity (a.u.)
23,AAAACAACCAGAATAACAGAGAGAGGGGTCGCTGTACCCGCGGAGTCACCTAGTGCAG,3270 fluorescence intensity (a.u.)
24,ACCACCGCTCCAATCACTCACGCCGCCGTGGCCGTGCATCCGGAGTCACCTAGTGCAG,3550 fluorescence intensity (a.u.)
25,GGATCCCTTTCAATGGAATGGAACGTGACGCATCGAGAAACGGAGTCACCTAGTGCAG,3760 fluorescence intensity (a.u.)
26,CCGCGAAAATATCACATCACACACACACGCAAACGCAAGTCGGAGTCACCTAGTGCAG,3260 fluorescence intensity (a.u.)
27,ACGTGCCAGTCAGTTTGATCCTGCAACTGACAAGATATGCCGGAGTCACCTAGTGCAG,16600 fluorescence intensity (a.u.)

# Not a retest: entries from further up.
row,Sequence,binding signal
18,CTCAAGGAGGGAGGAATGTCACGCCAGAGCATTCGTCATCCGGAGTCACCTAGTGCAG,3330 fluorescence intensity (a.u.)
19,TAGACACACACACGCCAATCACCCATCTAATATTCACATCCGGAGTCACCTAGTGCAG,6190 fluorescence intensity (a.u.)
20,ACTAACATATTGGTGCCACCAACACATAGGCATCACTGTGCGGAGTCACCTAGTGCAG,3530 fluorescence intensity (a.u.)
21,ACCAGATTCACCGTGATTAGTCTCACACTTAATAAATCGACGGAGTCACCTAGTGCAG,3370 fluorescence intensity (a.u.)
22,CATGTCGTCGTCGTGGTGGTGGTGGTGGTGGTGGGGCGGGCGGAGTCACCTAGTGCAG,11700 fluorescence intensity (a.u.)

# Source: PMC7819943, “Rice protein-binding microarrays: a tool to detect cis-acting elements near promoter regions in rice”
